PubChem BioAssay AID1259254 – NCATS – 2017
Purpose: 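Finding genes that stop cells copying their DNA twice in one cycle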 (primary screen). Cells: human HCT116 colorectal cancer cells. Reagent: single siRNA against human genes. Time to read-out: 3 days. Detection: 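Imaged Hoechst DNA stain sorts each cell into a cycle phase by DNA amount; per plate, G2 fraction set to 0% for non-targeting and 100% for GMNN siRNA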. Direction: G2 robust z-score and G2 cells, % of GMNN control: higher = more G2 cells, more excess DNA replication; raw share of cells in G2: higher = larger share of cells with G2 DNA content. Call rule: 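An siRNA counts as active if its G2 robust z-score lies at least 5 MADs above the screen median; here such calls match roughly 38% of GMNN control or more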.
In all, the deposit lists about 59,000 reagents; this is a random part of them. About 1,550 of all reagents (2.6%) count as active. 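G2 share is only a proxy for re-replication; each gene was hit by three separate siRNAs, and active genes were retested.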 The raw values are shown without normalisation. Unmarked entries are inactive. The numbers tell different reagents against one gene apart. Not stated in the record: the amount of reagent.

The opening 3 entries, ahead of the listing:
Target gene,reagent no.,G2 robust z-score,"G2 cells, % of GMNN control",raw share of cells in G2 (%)
TMEM184C,1,-0.281,0.987,4.9
TMEM184C,2,0.619,7.32,7.17
TMEM184C,3,0.037,3.23,4.17

The list itself, repeating the preview:
Target gene,reagent no.,G2 robust z-score,"G2 cells, % of GMNN control",raw share of cells in G2 (%)
TMEM184C,1,-0.281,0.987,4.9
TMEM184C,2,0.619,7.32,7.17
TMEM184C,3,0.037,3.23,4.17
PTOV1,1,-0.0208,2.82,3.79
PTOV1,2,-1.21,-5.58,3.39
PTOV1,3,-0.901,-3.37,2.57
LRFN3,1,1.42,12.9,8.93
LRFN3,2,1.42,12.9,11
LRFN3,3,-1.38,-6.72,1.97
ASGR2,1,9.54 (active),70.1,28.6
ASGR2,2,3.2,25.5,13.5
ASGR2,3,1.88,16.2,10.8
ECT2,1,5.63 (active),42.6,20.7
ECT2,2,4.93,37.6,19.6
ECT2,3,8.77 (active),64.7,26.7
CTIF,1,-0.881,-3.23,3.87
CTIF,2,-0.355,0.468,4.14
CTIF,3,-0.496,-0.523,3.21
ZNHIT3,1,1.52,13.7,8.08
ZNHIT3,2,0.949,9.64,10.3
ZNHIT3,3,-0.4,0.156,3.4
SLC35G1,1,0.604,7.22,6.19
SLC35G1,2,-0.326,0.671,3.18
SLC35G1,3,-0.0813,2.4,3.52
ELL2,1,-0.711,-2.04,2.85
ELL2,2,0.1,3.67,7.62
ELL2,3,0.498,6.47,6.05
F11R,1,-1.26,-5.93,1.53
F11R,2,0.379,5.64,6.33
F11R,3,-1.12,-4.94,3.71
RPL21P131,1,0.924,9.47,7.02
RPL21P131,2,0.252,4.74,5.47
RPL21P131,3,3.59,28.2,16.7
CCDC116,1,-0.634,-1.49,2.29
CCDC116,2,1.34,12.4,8.05
CCDC116,3,-0.851,-3.02,1.95
RGS17,1,-1.26,-5.9,3.49
RGS17,2,0.592,7.14,6.56
RGS17,3,-0.315,0.751,4.24
OR13C5,1,-0.581,-1.12,3.75
OR13C5,2,-0.634,-1.49,2.63
OR13C5,3,-0.615,-1.36,2.09
SLC26A2,1,-0.107,2.21,5.8
SLC26A2,2,0.898,9.29,7.3
SLC26A2,3,1.57,14,9.96
NOTCH1,1,-0.159,1.85,6.08
NOTCH1,2,-0.313,0.765,5.77
NOTCH1,3,-1.04,-4.33,1.77
MOB1A,1,-0.0259,2.79,7.65
MOB1A,2,-0.563,-0.996,4.08
MOB1A,3,-0.733,-2.19,3.42
GDF6,1,-0.119,2.13,5.67
GDF6,2,0.581,7.06,6.38
GDF6,3,-0.976,-3.9,1.97
CEMIP,1,0.00379,2.99,5.53
CEMIP,2,-0.555,-0.935,4.01
CEMIP,3,1.71,15,7.78
FCGR2A,1,-1.5,-7.59,2.38
FCGR2A,2,-0.617,-1.37,3.17
FCGR2A,3,0.322,5.24,7.14
NHERF2,1,-1.03,-4.26,3.77
NHERF2,2,0.0731,3.48,6.12
NHERF2,3,-0.515,-0.659,4.47
DRD4,1,-0.567,-1.02,2.96
DRD4,2,0.105,3.71,5.81
DRD4,3,-0.456,-0.238,5.76
HSP90B1,1,-0.459,-0.265,3.36
HSP90B1,2,-0.687,-1.87,3.97
HSP90B1,3,0.0362,3.22,4.28
